Record: PubChem BioAssay AID1259308 (NCATS, 2017)

- Screen: 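Knock-downs that increase output of a recombinant reporter protein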 (primary screen)
- Cell system: human HEK293 embryonic kidney cells stably expressing firefly luciferase (HEK-CMV-Luc2-Hygro)
- Reagent: single siRNA against human genes, 0.8 pmol siRNA per well
- Timing: 72 h
- Measured: 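Luciferase light (ONE-Glo) measured on one replicate plate set and viability (CellTiter-Glo) on the other, scaled to a negative control siRNA, with robust z-scores and luciferase per cell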
- Reading the numbers: total luciferase, z-score and total luciferase, % of control: higher = more reporter protein produced; luciferase per cell, z-score: higher = more reporter output per viable cell; viable cells, % of control: higher = more viable cells
- Active means: 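An siRNA counts as active if its total luciferase robust z-score exceeds 3; genes with two or more such siRNAs out of three were retested with fresh siRNAs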
- Calls: active = raised luciferase; inactive = no rise
The deposit covers about 59,000 reagents; shown is a random part of them. Of all reagents, about 1,510 (2.6%) got an active call. 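Calls use total luciferase alone and ignore viability, so some active siRNAs may act by altering cell number.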

target | PubChem SID | total luciferase, z-score | total luciferase, % of control | luciferase per cell, z-score | viable cells, % of control | activity call
ARSH | SID160764993 | -0.131 | 79.3 | 1.59 | 58.3 | inactive
ARSH | SID160764994 | 2.81 | 138 | 1.72 | 97.9 | inactive
ARSH | SID160764995 | -1.91 | 44 | -1.39 | 70.9 | inactive
SERPINE1 | SID160713799 | -1.7 | 48.1 | -1.15 | 72.8 | inactive
SERPINE1 | SID160713800 | -0.377 | 74.4 | 1.23 | 60.1 | inactive
SERPINE1 | SID160713801 | -1.91 | 43.9 | -1.63 | 75.3 | inactive
BAG6 | SID160719472 | -0.859 | 64.8 | -0.631 | 85.5 | inactive
BAG6 | SID160719473 | 0.387 | 89.6 | 0.0912 | 97.7 | inactive
BAG6 | SID160719474 | 1.48 | 111 | 0.971 | 96.3 | inactive
MEIS1 | SID160777127 | -0.379 | 74.3 | -0.509 | 95 | inactive
MEIS1 | SID160777128 | 2.08 | 123 | 2.47 | 71.8 | inactive
MEIS1 | SID160777129 | -0.149 | 78.9 | -0.232 | 93.8 | inactive
HS2ST1 | SID160722719 | 2.04 | 122 | 2.12 | 78.4 | inactive
HS2ST1 | SID160722721 | -0.443 | 73.1 | -0.77 | 100 | inactive
HS2ST1 | SID160722722 | 1.13 | 104 | 0.293 | 108 | inactive
LGALS3 | SID160776583 | 1.47 | 111 | 0.583 | 107 | inactive
LGALS3 | SID160776584 | 0.681 | 95.4 | 0.588 | 91.3 | inactive
LGALS3 | SID160776585 | -0.00281 | 81.8 | -0.0042 | 91.5 | inactive
SLC17A2 | SID160727622 | 0.364 | 89.1 | 0.465 | 88.1 | inactive
SLC17A2 | SID160727637 | 0.261 | 87.1 | 0.749 | 79.9 | inactive
SLC17A2 | SID160730418 | -0.984 | 62.3 | -0.923 | 88.8 | inactive
ARL5A | SID160737787 | -0.802 | 65.9 | -0.774 | 90.3 | inactive
ARL5A | SID160737788 | -0.525 | 71.4 | -0.197 | 84.1 | inactive
ARL5A | SID160737789 | -0.121 | 79.5 | -0.575 | 103 | inactive
GYS1 | SID160774763 | -0.653 | 68.9 | -0.513 | 88.1 | inactive
GYS1 | SID160774764 | 1.62 | 114 | 0.936 | 99.6 | inactive
GYS1 | SID160774765 | -1.12 | 59.6 | -0.832 | 82.9 | inactive
CLYBL | SID160732634 | 0.821 | 98.2 | 0.546 | 95.1 | inactive
CLYBL | SID160760515 | -1.05 | 60.9 | -1.55 | 102 | inactive
CLYBL | SID160760516 | -0.971 | 62.6 | -0.844 | 87.3 | inactive
CCDC18 | SID160733109 | 0.126 | 84.4 | -0.326 | 103 | inactive
CCDC18 | SID160764689 | -0.629 | 69.4 | -0.47 | 87.7 | inactive
CCDC18 | SID160764690 | -0.265 | 76.6 | 0.18 | 81.6 | inactive
CTTNBP2 | SID160751603 | -1.9 | 44.1 | -1.29 | 69.2 | inactive
CTTNBP2 | SID160751604 | -1.2 | 57.9 | -1.25 | 89.9 | inactive
CTTNBP2 | SID160751605 | 0.327 | 88.4 | -0.57 | 115 | inactive
REST | SID160715805 | -1.07 | 60.5 | -0.908 | 85.9 | inactive
REST | SID160715806 | -0.396 | 74 | -0.252 | 88.4 | inactive
REST | SID160715807 | -0.581 | 70.3 | -0.228 | 83.5 | inactive
ZNF81 | SID160764948 | -0.544 | 71.1 | 1 | 61 | inactive
ZNF81 | SID160764950 | -0.183 | 78.2 | 0.312 | 80.5 | inactive
ZNF81 | SID160764951 | -0.683 | 68.3 | -0.69 | 91.5 | inactive
ANKRD55 | SID160749279 | -0.519 | 71.6 | -0.0255 | 80.5 | inactive
ANKRD55 | SID160749280 | 1.47 | 111 | 1.06 | 93.8 | inactive
ANKRD55 | SID160749281 | -0.000286 | 81.9 | -0.428 | 102 | inactive
WWC3 | SID160744495 | 1.07 | 103 | 0.811 | 93.1 | inactive
WWC3 | SID160744496 | -0.268 | 76.6 | -0.31 | 92.8 | inactive
WWC3 | SID160744497 | 0.273 | 87.3 | 0.461 | 86.4 | inactive
C1R | SID160729574 | 0.831 | 98.4 | 0.421 | 98.4 | inactive
C1R | SID160729582 | -1.1 | 60.1 | -1.22 | 92.5 | inactive
C1R | SID160729592 | -2.86 | 25 | -3.15 | 64.1 | inactive
PPIF | SID160725435 | -0.0662 | 80.6 | -0.508 | 103 | inactive
PPIF | SID160725437 | -0.92 | 63.6 | -0.626 | 83.8 | inactive
PPIF | SID160725443 | -0.12 | 79.5 | -0.541 | 102 | inactive
FYB2 | SID160760769 | -0.181 | 78.3 | -0.351 | 96 | inactive
FYB2 | SID160760770 | -0.214 | 77.6 | -0.207 | 91.6 | inactive
FYB2 | SID160760771 | 2.98 | 141 | 1.58 | 104 | inactive
XDH | SID160718883 | -2.09 | 40.4 | -2.5 | 87.2 | inactive
XDH | SID160718884 | -0.424 | 73.5 | -0.115 | 84.6 | inactive
XDH | SID160718885 | -0.101 | 79.9 | -0.0028 | 89.3 | inactive
DHX16 | SID160720062 | -0.722 | 67.5 | -0.685 | 90.4 | inactive
DHX16 | SID160720064 | 1.03 | 102 | 1.8 | 71.1 | inactive
DHX16 | SID160720065 | 0.134 | 84.5 | -0.721 | 114 | inactive
OR4L1 | SID160732389 | 0.109 | 84 | -0.435 | 105 | inactive
OR4L1 | SID160756010 | -0.1 | 79.9 | -0.524 | 102 | inactive
OR4L1 | SID160756011 | -0.18 | 78.3 | -0.509 | 100 | inactive
ETFDH | SID160762096 | 0.241 | 86.7 | -0.233 | 103 | inactive
ETFDH | SID160762106 | 0.332 | 88.5 | 0.88 | 78.4 | inactive
ETFDH | SID160762116 | -1.01 | 61.8 | -1.89 | 114 | inactive
TCF21 | SID160717830 | -0.276 | 76.4 | -0.44 | 95.9 | inactive
TCF21 | SID160717831 | -0.77 | 66.6 | -1.45 | 109 | inactive
TCF21 | SID160731819 | -1.52 | 51.7 | -1.94 | 96.3 | inactive
ADD1 | SID160714273 | -0.292 | 76.1 | -0.66 | 101 | inactive
ADD1 | SID160714283 | -0.0306 | 81.3 | -0.311 | 98.6 | inactive
ADD1 | SID160714293 | -2.29 | 36.4 | -1.41 | 58.8 | inactive

Copied from the list:
Under “viable cells, % of control”, ETFDH [SID160762116] has 114
Under “total luciferase, % of control”, BAG6 [SID160719474] shows 111
OR4L1 [SID160756010], viable cells, % of control: 102
For “viable cells, % of control”, CCDC18 [SID160764690] shows 81.6
Result of C1R [SID160729592] under “total luciferase, z-score”: -2.86
